No constants are given. Whether binding was seen depends on the method and setting. Some binding calls cover weakened binding; strength is not graded here.
B1: 70G1 (antibody, V domains shown)
VH: QSVKESEGGLFKPTDTLTLTCTVSGFSLSNYAINWVRQAPGNGLEWIGIINGYGMTYYASWAKSRSTITRNTSENTVTLKLTSLTAADTATYFCARDRYGSYVGYSSDIWGPGTLVTVSS
VL: AYDMTQTPASVEAAVGGTVTIKCQASQNISSRLAWYQQKPGQPPKLLIYGTSTLASGVPSRFRGSGSGTQFSLTISDLECADAATYYCQHGYYYSSSFTTYNAFGGGTEVVVK
notes: Recombinant rabbit monoclonal antibody expressed in Expi293; it was detected with anti-human IgG Fc
B2: 71D6 (antibody, V domains shown)
VH: QSLEESGGDLVKPGASLTLTCTASGFSFSTSYWIYWVRQAPGKGLELIACIATGSDGSTYYASWASGRFTISKTSSTTVTLQMTSLTAADTATYFCAREAGNGVYNLWGQGTLVTVSS
VL: AYDMTQTPASVEVAVGGTVTIKCQASESIRNALAWYQQKPGQPPKLLISGASKLASGVASRFKGSGSATEFTLTISDLECADAATYYCQQYYSSSNVDNGFGGGTEVVVK
notes: as for B1
B3: 74F1 (antibody, V domains shown)
VH: QQQLEESGGDLVKPEGSLTLTCTASGFSFSSRYNMCWVRQAPGKGLEWIACIYTGSSGSTYYASWAKGRFTISKTSSTVDLKMTSLTAADTATYFCAGGSYSYRLNLWGQGTLVTVSS
VL: DVVMTQTPASVSTAVGGTVTIKCQASQSISNELSWYQQKPGQPPKLLIYRASTLESGVSSRFSGSGSGTEFTLTISDLECADAATYYCQATGYGDFGNAFGGGTEVVVK
notes: as for B1
B4: 70H1 (antibody, V domains shown)
VH: QQQLEESGGGLVKPEGSLTLTCTASGFSFSSGYDMCWVRQAPGRGLEWIACIYTRSSGGTYYASWAKGRFTISKTSSTVDLRMTSLTAADTATYFCAGGRSSYRLNLWGQGALVTVSS
VL: DVVMTQTPSPVEAAVGGTVTIKCQASQSISNELSWYQQKPGQPPKLLIYRASTLESGVSSRFKGSGSGTEFTLTISDLECADAATYYCQSTFYGDYGNAFGGGTEVVVK
notes: Rabbit-derived variable regions; also called 70H1.IgG1; 70H1 antibody
B5: 69F12 (antibody, V domains shown)
VH: QSVEESEGGLFKPTDTLTLTCTISGFSLSNYDMIWVRQAPGNGLEYIGIISSRDKAGHAAWAKRRSTITRNPKENTVTLKMTSLTVADTATYFCARRFSSMHGLDIWGPGTLVTVSS
VL: AYDMTQTPSSVSAAVGGTVTIKCQASQSISNYLSWYQQKPGQPPKLLIYLASTLASGVPSRFKGSGSGTQFTLTISGVQCADAATYYCQQGYSSDSVDNVFGGGTEVVVK
notes: as for B1

By UniProt entry, the sequences of proteins in these tests, tags left out. Residues count along the entry.
UniProt Q08722, residues 19-323: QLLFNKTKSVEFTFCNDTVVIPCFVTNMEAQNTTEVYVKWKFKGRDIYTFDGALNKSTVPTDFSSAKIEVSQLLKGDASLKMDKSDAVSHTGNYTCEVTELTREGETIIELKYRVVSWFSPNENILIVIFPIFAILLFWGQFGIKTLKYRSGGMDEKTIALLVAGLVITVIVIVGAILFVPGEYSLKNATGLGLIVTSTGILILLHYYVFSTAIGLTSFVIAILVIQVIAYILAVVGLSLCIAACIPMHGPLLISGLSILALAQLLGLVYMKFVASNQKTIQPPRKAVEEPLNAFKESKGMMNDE

What follows are binders tested against T1, CD47 on CHOK1-CD47 cells (UniProt Q08722 19-323) (assay: flow cytometry on CHOK1-CD47 cells).
T1 construct: whole, on cells; The rabbits were immunized with human CD47, so human is likely

binding, binds:
B1
B2
B3
B4
B5
